A short description of assay [1]: S16 Schwann cell PMP22 intronic element beta-lactamase assay (AID 624044). The following applies: S16 rat Schwann cells, PMP22 element beta-lactamase FRET, 24 h. Put shortly: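 Rat S16 Schwann cells with beta-Lac driven by a PMP22 intronic element, compound-treated 24 h at 37 °C. LiveBLAzer FRET B/G read: 460 nm normalized to potassium clavulanate vs DMSO; 535 nm FRET as viability; concentration-effect curves classified.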

Assay [2] in a line: qHTS drug screen for cell cycle checkpoint inhibitors in PARPi-resistant BRCA-mutant ovarian cancer cell lines. (AID 1963452). The conditions noted are these: PEO1/OlaR viability, CellTiter-Glo luminescence, 96 h. Put shortly:
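PEO1, PEO4 and PEO1/OlaR ovarian cancer cells, 600 per well, exposed 96 h at 37C to a dilution series. Viability read by CellTiter-Glo luminescence, normalized to DMSO and empty wells; activity summarized as Z-AUC.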
A general note: In qHTS, concentration-response curves come from the screen itself.

Assay [3] is described as follows: qHTS for identification of novel therapeutic agents for treatment of microphthalmiaassociated transcription factor (MiT) renal cell carcinoma (RCC) (AID 1963991). The following applies: CellTiter-Glo, 48 h; for z-score: stronger effect = lower value. The essentials: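 Three TFE3-fusion RCC lines (UOK109, UOK124, UOK145), 500 cells/well in complete medium, were treated with MIPE 4.0 compounds for 48 hours at 37 C. Viability was by CellTiter-Glo luminescence, normalized to DMSO (100%) and empty wells (0%); curves fitted over 11 concentrations.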

A short description of assay [4]: qHTS assay for small molecule antagonists of peroxisome proliferator-activated receptor delta signaling (AID 588535).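 Further: cells co-treated with a PPAR-delta agonist as stimulator during compound exposure.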 The conditions noted are these: HEK293T PPARd-UAS-bla, beta-lactamase FRET ratio, 18 h; 460 nm channel. The essentials: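 Antagonist-mode beta-lactamase reporter (GeneBLAzer PPAR-delta-UAS-bla) in HEK293T cells, 2% charcoal/dextran FBS, 4000 cells/well. Compound titrations, 18 h at 37 C; CCF4 ratio read, IC50 and efficacy from Hill fits.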

Assay [5] is described as follows: qHTS assay for small molecule antagonists of peroxisome proliferator-activated receptor gamma signaling (AID 588537). The following applies: HEK293 PPARg-UAS-bla, beta-lactamase ratio, antagonist mode; measured here: W460 blue channel. The essentials:
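PPARγ-UAS-bla HEK293 cells (3000/well) in 1% charcoal/dextran-stripped FBS are treated with compound, then stimulated with 50 nM rosiglitazone for 16 h at 37 °C. Read-out is CCF4 β-lactamase fluorescence after 2 h at RT. IC50 comes from Hill fits normalised to rosiglitazone and DMSO.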

Assay [6] in a line: qHTS assay for small molecule agonists of retinoid X receptor alpha signaling (AID 588544). The conditions noted are these: HEK293T RXRa-UAS-bla, beta-lactamase reporter, 18 h; 530 nm emission.
Assay [7] is described as follows: qHTS assay for small molecule antagonists of retinoid X receptor alpha signaling (AID 588546).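 Further: cells stimulated with 9-cis-retinoic acid as agonist; on the % scale 0 is the no-effect control and ±100 the full control effect.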 The following applies: HEK293T RXRa-UAS-bla, beta-lactamase ratio, antagonist mode; measured here: W530 green channel, cytotoxicity proxy. Put shortly:
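Beta-lactamase reporter inhibition, read as CCF4 fluorescence ratio (ex 405, em 460/530 nm) after 2 h at RT. HEK293T UAS-bla cells, 2500/well, were stimulated with 9-cis-RA at 500 or 100 nM final alongside test compound for 18 h at 37 C.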

Assay [8] in a line: qHTS Validation Assay to Find Inhibitors of Chronic Active B-Cell Receptor Signaling (AID 485345). The conditions noted are these: ABC-DLBCL cells, chronic BCR signaling reporter. The essentials:
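TMD8 ABC-DLBCL cells stably carrying doxycycline-inducible IkappaBalpha–green luciferase fusion plus unfused red luciferase; compounds 46 uM to 3 nM, 4 h at 37C with doxycycline. Corrected green/red luminescence ratio normalized to 10 uM MG-132 and basal cell wells; curves fitted.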

Assay [9] can be described thus: Nrf2 qHTS screen for inhibitors: Validation (AID 493153). The conditions noted are these: A549 ARE-Fluc reporter, 18-24 h; AC50: CellTiter-Fluor fluorescence read, measured here: cytotoxicity CellTiter-Fluor AC50; viability change: measured here: cytotoxicity max response. Put shortly: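 Luminescence from an ARE-firefly luciferase reporter in A549 cells gives Nrf2 inhibition; an earlier CellTiter-Fluor fluorescent read flags cytotoxicity. Cells in 5% FBS OPTI-MEM received compound dilution series for 18-24 h at 37°C.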

The mark [10] stands for this setting: measured here: 460 nm blue channel.
Setting [11] is: measured here: PEO1 parental viability.
Setting [12] is: TFE3-RCC UOK109 viability, measured here: UOK109 Z-AUC.
Setting [13] is: TFE3-RCC viability, measured here: UOK124 Z-AUC.
[14] abbreviates: TFE3-RCC viability, measured here: UOK145 Z-AUC.
Where [15] appears, read: TFE3-RCC viability, measured here: UOK145 cell viability.
[16] abbreviates: TFE3-RCC viability, measured here: UOK124 cell viability.

Values joined by “and” are separate entries in the source; they are usually repeats but may differ in a detail not shown here. Equal values may be shown once. The list shows a part of the results. These are further read-outs of the screen, such as a control signal, another cell line or another target. No call is given for them. For some of these results: Compounds called inactive in the main read-out are mostly missing here. For some of these results: Words in brackets tell the shape of the fitted curve; partial curves, single points and poor fits give uncertain potencies.

The term AC50 denotes the concentration at which the activity in the assay is half-maximal. As to `C/C(=C\c1csc(C)n1)[C@@H]1C[C@@H]2O[C@]2(C)CCC[C@H](C)[C@H](O)[C@@H](C)C(=O)C(C)(C)[C@@H](O)CC(=O)O1`, the AC50 in [1] (setting [10]) is 9990 nM [falling, full curve, poor fit]; in assay [1] (measured here: 530 nm viability channel), 28200 nM [falling, single point]; in assay [2] (setting [11]), 9.8 nM [falling, full curve]; in assay [2] (measured here: PEO4 viability), 5.5 nM [falling, full curve, poor fit].

Take `O=C(NCC1CCOCC1)c1cnc(Nc2ccc(Cl)cc2Cl)nc1C(F)(F)F`: the z-score in assay [3] (setting [12]) is 0.22; in [3] (setting [13]), 0.933; in assay [3] (setting [14]) it was -0.366. For the same compound, in [3] (setting [15]), the concentration at half-maximal activity (AC50) is 10500 nM [falling, full curve].

Turning to `C[C@@H]1CN(Cc2ccc(F)cc2)CCN1C(=O)COc1ccc(Cl)cc1NC(N)=O`, the AC50 in assay [2] (setting [11]) was 1100 nM [falling, partial curve]; in assay [2] (measured here: PEO4 viability), 4360 nM [falling, full curve].

With `CN1C(=O)COc2c(C(=O)NC3CN4CCC3CC4)cc(Cl)cc21` (stereo not given), the z-score in assay [3] (setting [12]) was 0.871; in [3] (setting [13]) it was 0.724; in assay [3] (setting [14]), 0.614.

Regarding `CCNC(=O)CC1N=C(c2ccc(Cl)cc2)c2cc(OC)ccc2-n2c(C)nnc21` (stereo not given), the AC50 is 19500 nM [falling, partial curve, poor fit] in [2] (setting [11]) and 23500 nM [falling, single point] in assay [3] (setting [15]). In addition, the z-score in assay [3] (setting [12]) is 0.0501; in assay [3] (setting [13]), 0.344; in assay [3] (setting [14]), -0.383.

With `O=C(O)C(=O)c1cn(Cc2ccccc2)c2ccc(-c3ccc(OC(F)(F)F)cc3)cc12`, the concentration at half-maximal activity (AC50) is 27500 nM [falling, single point] in [2] (setting [11]) and 6620 nM [falling, partial curve, poor fit] in [3] (setting [16]). Besides, the values for the z-score in [3] (setting [12]), in [3] (setting [13]) and in assay [3] (setting [14]) were 0.669, 0.25 and 0.729, respectively.

In the case of `O=C(Oc1ccc([N+](=O)[O-])cc1)N1CCN(Cc2cccc(Oc3ccccc3)c2)CC1`, the AC50 in [2] (setting [11]) was 24500 nM [falling, partial curve, poor fit]; in assay [3] (setting [16]), 37200 nM [falling, partial curve, poor fit]; in [3] (setting [15]), 9350 nM [falling, full curve]. The z-score is -0.801 in assay [3] (setting [12]), 0.364 in assay [3] (setting [13]) and -0.675 in [3] (setting [14]).

For `CC[C@@H]1[C@@H](C)O[C@@](O)([C@@H](C)[C@H](O)[C@H](C)[C@H]2OC(=O)C=CC=C[C@@H](C)[C@@H]([C@@H](C)[C@@H](O)[C@H](C)[C@@]3(O)C[C@H](O[C@H]4C[C@H](O)[C@H](O)[C@H](C)O4)[C@H](CC)[C@@H](C)O3)OC(=O)C=CC=C[C@@H]2C)C[C@H]1O[C@H]1C[C@H](O)[C@H](O)[C@H](C)O1`, the AC50 in [3] (setting [16]) was 526 nM [falling, full curve]; in assay [3] (setting [15]) it was 1050 nM [falling, full curve].

As for `CC(C)(O)C=CC(=O)[C@](C)(O)[C@H]1[C@H](O)C[C@]2(C)[C@@H]3CC=C4[C@@H](C=C(O)C(=O)C4(C)C)[C@]3(C)C(=O)C[C@@]12C`, the half-maximal activity concentration (AC50) in assay [3] (setting [16]) is 166 nM [falling, full curve]; in [3] (setting [15]), 148 nM [falling, full curve].

Consider `Cc1ccccc1-n1c(Cn2cnc3c(N)ncnc32)nc2cccc(C)c2c1=O`, for which the half-maximal activity concentration (AC50) in assay [3] (setting [16]) is 1660 nM [falling, full curve]; in [3] (setting [15]), 526 nM [falling, full curve].

With `C[C@@]12OC(=O)[C@]1([C@@H](O)[C@@H]1C=CCCC1)NC(=O)[C@H]2CCCl`, the AC50 in assay [3] (setting [16]) was 93.5 nM [falling, full curve]; in [3] (setting [15]), 93.5 nM [falling, full curve].

As to `N[C@@H](Cc1ccc(N(CCCl)CCCl)cc1)C(=O)O`, the max response in [4] is 107% and -19.3%; in assay [6], 79.1% and 38.6%; in assay [7] it was 27.2% and 35.7%. Moreover, the concentration at half-maximal activity (AC50) was 50100 nM [rising, single point] in [5]; 1990 nM [falling, partial curve, poor fit] in [1] (setting [10]); 692 nM [falling, full curve] in assay [2] (setting [11]); 871 nM [falling, full curve, poor fit] in assay [2] (measured here: PEO4 viability); 18700 nM [falling, partial curve] in assay [3] (setting [16]); 18700 nM [falling, partial curve] in [3] (setting [15]). For the same compound, the values for the z-score in assay [3] (setting [12]), in [3] (setting [13]) and in assay [3] (setting [14]) were 1.07, 1.98 and 0.854, respectively.

As for `C/C=C(/C)C(=O)O[C@H]1C(C)=C2[C@H]([C@@H]1OC(=O)CCCCCCC)[C@@](C)(OC(C)=O)C[C@H](OC(=O)CCC)[C@@]1(O)[C@H]2OC(=O)[C@@]1(C)O`, the AC50 in assay [8] (measured here: CBG/CBR ratio read-out) was 14600 nM [falling, partial curve]; in [8] (measured here: CBR control luciferase (viability counter)) it was 18400 nM [falling, single point]; in assay [9] it was 82 nM [falling, full curve]; in assay [2] (setting [11]) it was 7.8 nM [falling, full curve]; in assay [2] (measured here: PEO4 viability), 6.9 nM [falling, full curve]. Moreover, the viability change in assay [9] was -50.7%.

These data come from PubChem BioAssay (NCATS).
